Primary screen of a compound library

The values are deposited in ChEMBL (CHEMBL3988442, “University of Dundee, Small-Polar-MMV Screening Library” (2021)).

Mtb growth Cornell: 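Whole-cell assay for inhibitors of Mycobacterium tuberculosis growth, labelled Cornell in the record; the read-out is not stated. The concentration is filed as 10 mM, unlikely as a test dose, so the dose is not known. The record gives no direction; compounds strong in two other growth screens of this library score well above the rest, so higher reads as stronger inhibition. Of about 53,000 compounds tested this way, about 900 (1.7%) reached 50% or more in at least one test.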
Mtb heat-shock: 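Assay on Mycobacterium tuberculosis, filed only as a heat shock assay from Cornell; the read-out is not stated. The concentration is filed as 10 mM, unlikely as a test dose, so the dose is not known. The record gives no direction; compounds that gave an IC50 in retests scored well above the rest, so higher reads as stronger inhibition. Size under these conditions: about 69,000 compounds, about 930 of them at 50% or above in at least one test.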

The filed quantity is “Percent Effect” (%). The record does not define 0% and 100%; most values in the screen are far below 50% and negative numbers occur (in some assays of this library far below -100). Compounds were drawn at random from those tested, without regard to their results. A dash means the value is not listed here; it may have been measured.

SMILES	Mtb growth Cornell	Mtb heat-shock
CC(NCc1ccsc1)c1ccc(OCc2nccn2C)cc1 (stereo not drawn)	9.821%	-28.6%
CC(NC(=O)C1CCCC1)c1nc(-c2ccccc2)c[nH]1 (stereo not drawn)	-17.34%	9.076%
O=C(O)C(F)(F)F.[H][C@]12CCN(Cc3nccs3)C[C@@]1([H])OCCN(C(=O)c1ccco1)C2	19.08%	4.898%
COC(=O)CC1CCN(C(=O)Nc2ccc(-c3ccn[nH]3)cc2)C1 (stereo not drawn)	1.136%	-4.721%
CCOCCN1CCN(CCCc2nnnn2-c2ccccc2)CC1	7.797%	6.168%
Cn1cc(C[C@H]2[C@H](N3CCOCC3)CCN2c2ncc(F)cn2)cn1.O=C(O)C(F)(F)F	13.43%	-23.56%
Cc1nc(C)n(CC2CN(Cc3cccc4c3OCCO4)CCO2)n1 (stereo not drawn)	22.67%	9.89%
CCCN(CCC)C(=O)Cn1c(SC)nc2ccsc2c1=O	-	5.715%
Cc1ccc(-c2cn3c(n2)CO[C@@H](CNCc2nccn2C)C3)cc1	-12.19%	18.13%
O=C(c1cc2ccccc2[nH]1)N1CCC(Nc2cccnn2)CC1	-	-1.451%
COc1ccc(CC(=O)N2CCCC(n3nc(C)cc3C)C2)cc1 (stereo not drawn)	-	-17.06%
COc1ccc(CN(Cc2nc(C)no2)C2CCCCC2)cc1OC	13.67%	4.116%
CC(NC(=O)NCCCc1n[nH]c(N)c1C#N)c1ccc(F)cc1 (stereo not drawn)	-	-8.768%
CC(C)(CN1CCCC1)CN1CCC(Cn2cc(C3CC3)nn2)CC1	-7.777%	-20.1%
CCSc1ccc(C(=O)N2CC[C@](C)(O)[C@H](C)C2)s1	-	7.013%
O=C(NCC(O)COc1ccccc1)C1(c2ccc(F)cc2)CC1 (stereo not drawn)	12.11%	24.95%
O=S(=O)(Nc1c(F)cccc1N1CCCC1)c1cncc(F)c1	35.26%	6.066%
COc1cc(N2CCN(Cc3ccsc3)C(CCO)C2)nc(N)n1 (stereo not drawn)	-	-2.355%
COCCOCC(=O)Nc1ccccc1F	7.951%	15.47%
CC(=O)c1cnc(N(C)Cc2cnc3ccccc3n2)nc1C	20.84%	5.979%
[H][C@]12CCCCN1CCC[C@H]2CNC(=O)Cn1ccc2ccccc21	32.95%	10.76%
Cc1cnn(CC2CCCN2C(=O)Cc2c(C)noc2C)c1 (stereo not drawn)	-	-15.11%
CCc1nc(CN2CCCN(C(=O)c3cnc(C)cn3)CC2)cs1	-	24.7%
CCCc1nnsc1C(=O)N1CCN(CC(O)C2CC2)CC1.Cl (stereo not drawn)	-36.41%	-11.64%
Cc1cc(C)n(C2CN(c3ncnc4c3CCNCC4)C2)n1	46.95%	6.036%
CSCc1cccc(NC(=O)N2CCC(N3CC=CC3)C2)c1 (stereo not drawn)	-39.08%	1.695%
CC1=C(C(=O)N2CCOC(Cc3cccc(C(F)(F)F)c3)C2)OCCO1 (stereo not drawn)	22.58%	-17.01%
COc1ccccc1OCC(=O)NCC(C)(O)C1CC1 (stereo not drawn)	0.3193%	11%
Cc1cc(C)cc(CN2CCN(Cc3ccc4nonc4c3)CC2=O)c1	26.75%	19.24%
CC(=O)Nc1nc(CN2CCn3c(nnc3C(C)C)C2)cs1	-7.833%	-9.582%
O=C1C(N2CCOCC2)CCCN1Cc1cccc(C(F)(F)F)c1 (stereo not drawn)	-27.86%	-28.14%
CCOc1ncccc1NC(=O)NC1CCN(C(=O)C2CC2)CC1	-	-43.14%
[H][C@]12CC[C@]([H])(CC(=O)NC1)N2C1CCOCC1	-	-8.619%
Cc1nnsc1C(=O)N1CCCC(n2nnc3cc(F)ccc32)C1 (stereo not drawn)	2.275%	-11.58%
Cc1cccc(C(=O)N2CCn3cnc(COCC4CC4)c3C2)n1	-9.062%	31.47%
Cc1cc(N(C)CCCn2cccn2)nc(-c2cccnc2)n1	-8.663%	-21.74%
Cc1nc(CN(C)C(=O)Nc2cnn(CC3CCCO3)c2)cs1 (stereo not drawn)	-	-2.85%
CC(C)C(=O)N1CCN(S(=O)(=O)C2CC2)CC2(CC(=O)N(C)C2)C1 (stereo not drawn)	-15.16%	4.461%
CC(C)c1nc(-c2cc(C(=O)O)c3ccccn23)cs1	89.3%	10.11%
Cc1nc(O)cc(CCNC(=O)c2ccccc2N2CCCC2)n1	-30.38%	-8.367%
COCCN(C(=O)c1ccn(-c2ccc(OC)cc2)n1)C(C)C(N)=O (stereo not drawn)	-20.82%	-9.888%
Cc1ccc(C(=O)N2Cc3c(CN4CCCCC4)nn(C)c3C2)cc1F.O=C(O)C(F)(F)F	-	-32.35%
Cc1cc(C)n2c(CCCNS(=O)(=O)c3cccs3)nnc2n1	-67.05%	9.062%
CCC(=O)NC(Cc1cc(N(C)C)nc(C2CC2)n1)c1ccccc1 (stereo not drawn)	47.48%	-0.8865%
CCOc1ccc(C2CCCN2Cc2nnnn2C2CC2)cc1 (stereo not drawn)	24.04%	16.74%
O=C(O)C(F)(F)F.[H][C@@]12COC[C@H](NS(C)(=O)=O)[C@]1([H])CN(Cc1ccc(C)o1)C2	-9.379%	24.33%
CCCS(=O)(=O)N1CCC(NC(=O)c2cc3ccccc3s2)CC1	-10.13%	-12.01%
Cc1nc2cc(=O)[nH]n2c(C)c1CC(=O)Nc1ccc2ccccc2n1	-	17.1%
COCCN(Cc1coc(-c2cccc(Cl)c2)n1)C1CC1	16.2%	-5.262%
CC(c1cn2ncsc2n1)N1Cc2ncccc2C1=O (stereo not drawn)	-57.17%	-28.31%
[H][C@@]12CS(=O)(=O)C[C@]1([H])N(Cc1cccc(OC(C)C)c1)CCN2CCC	4.078%	-10.18%
Cc1ccc(CN2CCN(C)c3ncccc3C2)o1	15.97%	-23.09%
COCC(=O)N1Cc2ccnn2CC(COCCN(C)C)C1.O=C(O)C(F)(F)F.O=C(O)C(F)(F)F (stereo not drawn)	9.006%	-7.162%
COC(=O)c1cc(OCC2CCC2)cc(C(=O)N[C@H]2CC[C@H](O)CC2)c1	-12.59%	-12.61%
CCc1c(C)nn(CCNC(=O)c2cnn[nH]2)c1C	7.075%	-2.542%
O=C(CCN1C(=O)CCC1=O)Nc1cnn(-c2ccccc2Cl)c1	-2.86%	25.1%

Some entries from above, unchanged:

* O=C1C(N2CCOCC2)CCCN1Cc1cccc(C(F)(F)F)c1 (stereo not drawn) : Mtb growth Cornell: -27.86%; Mtb heat-shock: -28.14%
* CC(=O)c1cnc(N(C)Cc2cnc3ccccc3n2)nc1C : Mtb growth Cornell: 20.84%; Mtb heat-shock: 5.979%
* COC(=O)c1cc(OCC2CCC2)cc(C(=O)N[C@H]2CC[C@H](O)CC2)c1 : Mtb growth Cornell: -12.59%; Mtb heat-shock: -12.61%